The target in experiment [1] is SERINC5-HA (pBJ5-hSERINC5-HA) (human) (UniProt Q86VE9). As to the kind of experiment: co-IP.
In experiment [2] the target is SARS-CoV-2 ORF7a-V5 (pCDNA SARS-CoV-2 ORF7a V5/His) (SARS-CoV-2) (UniProt P0DTC7). As to the kind of experiment: co-IP.

Amino acid sequences for entries named in this document (tags omitted). A change or cut given only in a name is not applied to a line headed by its entry. Residues count along the entry.
UniProt Q86VE9: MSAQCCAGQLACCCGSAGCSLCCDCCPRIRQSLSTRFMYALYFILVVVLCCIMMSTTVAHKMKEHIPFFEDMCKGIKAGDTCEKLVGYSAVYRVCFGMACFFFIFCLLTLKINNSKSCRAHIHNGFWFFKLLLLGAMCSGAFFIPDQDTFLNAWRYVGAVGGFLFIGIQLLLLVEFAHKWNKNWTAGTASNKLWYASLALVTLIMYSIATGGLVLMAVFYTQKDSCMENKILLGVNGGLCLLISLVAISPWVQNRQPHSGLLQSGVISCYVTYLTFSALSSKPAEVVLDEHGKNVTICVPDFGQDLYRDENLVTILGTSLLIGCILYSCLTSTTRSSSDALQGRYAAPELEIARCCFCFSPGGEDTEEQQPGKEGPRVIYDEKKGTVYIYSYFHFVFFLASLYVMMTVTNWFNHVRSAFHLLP
UniProt P0DTC7, residues 16-121: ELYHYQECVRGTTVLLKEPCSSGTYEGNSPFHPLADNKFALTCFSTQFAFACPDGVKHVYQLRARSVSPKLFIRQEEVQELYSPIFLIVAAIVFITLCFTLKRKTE

Results are given in words; binding and its absence hold for the method and conditions named. Binding seen in cells or lysates may run through a third protein. Binding can be weak; no strength is given.

For “SARS-CoV-2 ORF7a-V5 (pCDNA SARS-CoV-2 ORF7a V5/His) (from UniProt P0DTC7 16-121)”, the binding result in experiment [1] is “binds”.

With “SERINC5-HA (pBJ5-hSERINC5-HA) (from UniProt Q86VE9-4)”, in experiment [2], the binding entry is “binds”.

The record behind these values is article PMC9135752.
